This test concerns the target T1, Cdhr1a-FLAG (zebrafish) (UniProt Q6B3P0).
T1 sequence: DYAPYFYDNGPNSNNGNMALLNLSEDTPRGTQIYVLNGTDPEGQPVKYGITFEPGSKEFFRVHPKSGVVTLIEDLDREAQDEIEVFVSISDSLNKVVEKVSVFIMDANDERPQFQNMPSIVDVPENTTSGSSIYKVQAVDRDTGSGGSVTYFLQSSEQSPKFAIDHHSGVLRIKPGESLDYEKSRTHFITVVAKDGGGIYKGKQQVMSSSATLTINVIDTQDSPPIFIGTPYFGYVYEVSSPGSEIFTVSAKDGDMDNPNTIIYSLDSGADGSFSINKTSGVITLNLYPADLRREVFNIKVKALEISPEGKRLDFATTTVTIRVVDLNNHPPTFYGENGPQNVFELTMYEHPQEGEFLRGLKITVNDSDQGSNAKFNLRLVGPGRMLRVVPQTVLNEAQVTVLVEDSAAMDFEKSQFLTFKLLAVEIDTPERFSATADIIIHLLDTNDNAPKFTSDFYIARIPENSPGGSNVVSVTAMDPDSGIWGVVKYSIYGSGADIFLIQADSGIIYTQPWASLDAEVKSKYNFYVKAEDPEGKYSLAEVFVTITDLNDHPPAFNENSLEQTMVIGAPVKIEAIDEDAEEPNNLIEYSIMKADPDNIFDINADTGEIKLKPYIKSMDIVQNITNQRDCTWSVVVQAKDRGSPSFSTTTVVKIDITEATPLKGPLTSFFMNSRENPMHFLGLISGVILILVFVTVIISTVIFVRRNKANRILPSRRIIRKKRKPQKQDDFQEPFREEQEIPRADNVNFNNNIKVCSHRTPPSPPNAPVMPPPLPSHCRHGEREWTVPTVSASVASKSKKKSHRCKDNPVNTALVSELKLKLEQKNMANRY
In words: co-IP; HEK 293 cells co-transfected with Cdhr1a-FLAG and Siah1-myc or Siah1ΔRING-myc; treated with MG132 for 6 h prior to lysis; precipitated with FLAG antibodies; blot probed for FLAG and MYC.

Amino acid sequences for entries named in this document (tags omitted). A change or cut given only in a name is not applied to a line headed by its entry.
UniProt Q7ZVG6: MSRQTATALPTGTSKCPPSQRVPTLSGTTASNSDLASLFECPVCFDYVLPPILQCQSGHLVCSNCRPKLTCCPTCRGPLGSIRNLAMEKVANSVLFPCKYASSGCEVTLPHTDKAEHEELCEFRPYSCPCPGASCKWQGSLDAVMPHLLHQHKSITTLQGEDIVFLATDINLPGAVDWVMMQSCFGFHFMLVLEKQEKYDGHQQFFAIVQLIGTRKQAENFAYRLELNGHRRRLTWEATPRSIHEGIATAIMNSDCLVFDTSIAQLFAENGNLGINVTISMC

Results are given in words; binding and its absence hold for the method and conditions named. In cells and extracts the contact can be indirect. Binding calls can cover weak binding; strength is not graded here. Tags and fused reporters may be left off the sequences shown.

Turning to “Siah1ΔRING-myc (from UniProt Q7ZVG6) (enzyme)”, the binding entry is “binds”.

(Values after publication PMC7719784.)
